Measured values from patent US20040204388A1 (UCB, published 2004).
No constants are given. Whether binding was seen depends on the method and setting. In cells and extracts the contact can be indirect. Some results given as binding are weak or reduced against the parent protein; the word gives no strength.

Sequences of proteins named here, by UniProt entry; tags and fusion partners are left off. A change or cut given only in a name is not applied to a line headed by its entry.
UniProt Q02563: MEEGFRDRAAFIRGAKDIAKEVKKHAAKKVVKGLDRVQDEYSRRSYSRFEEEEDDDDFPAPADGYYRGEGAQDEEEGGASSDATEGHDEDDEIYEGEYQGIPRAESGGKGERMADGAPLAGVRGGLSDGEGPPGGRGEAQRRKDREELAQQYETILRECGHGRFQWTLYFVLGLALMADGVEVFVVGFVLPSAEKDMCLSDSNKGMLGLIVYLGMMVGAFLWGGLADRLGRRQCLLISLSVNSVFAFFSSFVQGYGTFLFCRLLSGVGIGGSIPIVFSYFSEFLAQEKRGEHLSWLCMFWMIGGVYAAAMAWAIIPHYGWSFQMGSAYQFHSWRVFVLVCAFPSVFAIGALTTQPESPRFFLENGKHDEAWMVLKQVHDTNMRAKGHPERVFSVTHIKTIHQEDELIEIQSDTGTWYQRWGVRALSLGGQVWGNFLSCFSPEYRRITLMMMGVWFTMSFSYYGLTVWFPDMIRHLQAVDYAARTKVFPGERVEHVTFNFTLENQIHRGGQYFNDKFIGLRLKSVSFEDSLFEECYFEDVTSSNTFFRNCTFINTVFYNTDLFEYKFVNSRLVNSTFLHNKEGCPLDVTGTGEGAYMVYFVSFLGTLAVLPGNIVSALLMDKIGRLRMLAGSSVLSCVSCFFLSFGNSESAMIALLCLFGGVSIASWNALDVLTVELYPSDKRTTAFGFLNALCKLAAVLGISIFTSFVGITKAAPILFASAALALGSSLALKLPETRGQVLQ
UniProt P21707: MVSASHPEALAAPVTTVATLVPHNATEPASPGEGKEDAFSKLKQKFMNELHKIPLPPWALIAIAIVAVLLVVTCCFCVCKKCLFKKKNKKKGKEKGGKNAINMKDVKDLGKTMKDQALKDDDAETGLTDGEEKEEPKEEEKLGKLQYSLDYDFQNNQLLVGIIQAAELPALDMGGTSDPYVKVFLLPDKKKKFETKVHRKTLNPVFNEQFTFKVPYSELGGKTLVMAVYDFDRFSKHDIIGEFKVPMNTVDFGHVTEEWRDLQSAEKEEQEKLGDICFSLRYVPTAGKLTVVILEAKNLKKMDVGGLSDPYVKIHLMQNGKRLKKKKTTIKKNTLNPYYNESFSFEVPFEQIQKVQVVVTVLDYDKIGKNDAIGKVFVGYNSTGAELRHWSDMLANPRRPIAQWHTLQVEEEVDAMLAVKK

Experiments:
[1] = molecular target: SV2A (rat; native protein of rat brain membranes, solubilized in n-dodecyl-β-D-maltoside; also endogenous in PC12bs cells) (rat) (UniProt Q02563); experiment: co-immunopurification with anti-SV2A antibodies, Western blot (FIG. 22)
[2] = molecular target: SV2A (rat; native protein of rat brain membranes, solubilized in n-dodecyl-β-D-maltoside; also endogenous in PC12bs cells) (rat) (UniProt Q02563); experiment: co-purification: fractions immunopurified with anti-SV2A antibodies from solubilized rat brain membranes, Western blot for synaptotagmin
[3] = molecular target: SV2A (rat; native protein of rat brain membranes, solubilized in n-dodecyl-β-D-maltoside; also endogenous in PC12bs cells) (rat) (UniProt Q02563); experiment: co-immunopurification with anti-SV2A antibodies and protein A-Sepharose from solubilized rat brain membranes, Western blot

Measured: binding

synaptotagmin (native, from solubilized rat brain membranes) (from UniProt P21707 1-421)
binds: all assays above
